Results as given in PMC12618074.
These are yes or no findings as the source states them, for the method shown. Binding seen in cells or lysates may run through a third protein. Some binding calls cover weakened binding; strength is not graded here.

Protein sequences, listed by entry. Tags and fused reporters are not part of them.
UniProt P49841: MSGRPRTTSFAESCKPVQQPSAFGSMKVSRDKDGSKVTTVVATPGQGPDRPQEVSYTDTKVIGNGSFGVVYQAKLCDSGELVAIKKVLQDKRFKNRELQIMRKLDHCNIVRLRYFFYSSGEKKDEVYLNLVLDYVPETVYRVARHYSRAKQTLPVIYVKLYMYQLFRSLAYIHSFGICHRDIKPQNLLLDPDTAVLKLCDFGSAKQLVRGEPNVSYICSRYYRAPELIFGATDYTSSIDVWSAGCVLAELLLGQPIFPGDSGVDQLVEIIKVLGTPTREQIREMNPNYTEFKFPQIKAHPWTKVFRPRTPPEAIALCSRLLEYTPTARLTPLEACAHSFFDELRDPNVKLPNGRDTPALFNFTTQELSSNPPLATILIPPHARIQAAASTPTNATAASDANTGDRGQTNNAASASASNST

Molecular target: WWP1 E3 ubiquitin ligase (UniProt Q9H0M0)
Test: co-IP; IP of WWP1 and GSK3β; details in Supplemental Figure 13B, C (not shown)

binding: binds
Substance: GSK3β (in the IP with WWP1, Supplemental Figure 13B) (from UniProt P49841 1-420) (enzyme)
